Results: US20190085041A1
No constants are given. Whether binding was seen depends on the method and setting. Some entries that bind do so weakly or less than the wild type. Tags and fused reporters may be left off the sequences shown.

Protein sequences, listed by entry. Tags and fused reporters are not part of them. Residues count along the entry.
UniProt P05067, residues 672-713: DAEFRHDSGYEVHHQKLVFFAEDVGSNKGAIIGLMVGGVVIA

Key:
[1] = target: Aβ protein (Human, 1-42) (Human) (UniProt P05067); test: conclusion of Example 5 from the co-incubation and western blot results
[2] = target: Aβ protein (Human, 1-42) (Human) (UniProt P05067); test: co-incubation, SDS-PAGE, western blot with V5-HRP (FIG. 6B)
[3] = target: Aβ protein (Human, 1-42) (Human) (UniProt P05067); test: co-incubation, SDS-PAGE, western blot with Aβ antibody (FIG. 6A)
[4] = target: Aβ protein (Human, 1-42) (Human) (UniProt P05067); test: co-incubation at 4 °C overnight, SDS-PAGE, western blot with Aβ antibody and V5-HRP

Measured: binding

B1: His×6-V5-sDSS1 protein (protein, not shown: small tags and cut ends)
chain: MSEKKQPVDLGLLEEDDEFEEFPAEDWAGLDEDEDAHVWEDNWDDDNVEDDFSNQLRATVLLMILVCETPYGCYVLHQKGRMCSAFLCC
binds: all assays above
